Test results as given in patent publication US10315998B2, “Amide compound and the preparation method and use thereof” (SHENYANG SINOCHEM AGROCHEMICALS R&D CO., LTD, priority 2015, dated 2019).
Some results were stated once for a whole list of compounds, not compound by compound.

The molecules below were run on cucumber downy mildew (Pseudoperonospora cubensis (Berk. et Curt.) Rostov) (assay: Protective effect against cucumber downy mildew on potted plants). Details: 400 ppm, foliar spray.
Format: in vivo
Method: Fungicidal activity of the compounds in the present invention against many kinds diseases were carried out. The procedure of fungicidal activity determination is as follows:
The fungicidal activity was tested in vivo manner on the potted plants. The test compounds of the present invention were dissolved in proper solvent (choosing the solvent according their dissolving ability to the compounds, the solvents could be acetone, methanol or N,N-dimethylformide, etc. The volume ratio between solvent and liquid sprayed was equal to or less than 0.05) and dilute with water contain 0.1% Tween 80 to given concentrations. Compounds of present invention was sprayed onto the leaves of seedling according to the designed concentration. Meanwhile, water was set as the blank control, three replicates were set for each treatment, the spore suspension were inoculated on the second day after treatment, then the plants were placed in an artificial climate chamber (temperature: day 25° C., night 20° C., relative humidity 95 to 100%). 24 hours later, the plants were moved to green house to cultivated. The plants which not need to control humidity was inoculated spore suspension in green house and cultivated in green house directly. The results were investigated after the plants were fully infected relative to the blank control (usually one week). The test resluts grading 100-0 refers to the <A Manual of Assessment Keys for Plant Diseases> which edited by American Phytopathological Society. “100” refer to no infection and “0” refer to the most serious infection
Protective effect against cucumber downy mildew (Pseudoperonospora cubensis (Berk. et Curt.) Rostov)
According the test method described above, parallel test were carried out between compounds 2, 4, 11, 13, 71 and 111 of present invention and the known compounds KC1, KC2, KC3, KC4, KC5 and KC6 (The compounds were self-made and the structure was confirmed by ^1H NMR consistent with the description of the procedures).

Row | Structure (SMILES) | protective effect against cucumber downy mildew
1 | CCCCC(C)Oc1cccc(NC(=O)c2cn(C)nc2C(C)C)c1C (stereo not drawn) [Compound 2] | ≥ 80%
2 | CCCCC(C)Oc1cccc(NC(=O)c2c(C)nn(C)c2Cl)c1C (stereo not drawn) [Compound 4] | ≥ 80%
3 | CCCCC(C)Oc1cccc(NC(=O)c2c(C(F)F)nn(C)c2Cl)c1C (stereo not drawn) [Compound 11] | ≥ 80%
4 | CCCCC(C)Oc1cccc(NC(=O)c2cn(C)nc2C(F)(F)F)c1C (stereo not drawn) [Compound 13] | ≥ 80%
5 | CCCCC(C)Oc1cccc(NC(=O)c2sc(C)nc2C(F)(F)F)c1C (stereo not drawn) [Compound 71] | ≥ 80%
6 | CCCC(C)Oc1cccc(NC(=O)c2sc(C(F)(F)F)nc2CC)c1C (stereo not drawn) [Compound 111] | ≥ 80%
